Results deposited as PubChem BioAssay AID1259308 (NCATS, 2017)
Screen: 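Genes whose loss raises luciferase production in HEK293 cells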 (primary screen). Cells: human HEK293 embryonic kidney cells stably expressing firefly luciferase (HEK-CMV-Luc2-Hygro). Knock-down reagent: single siRNA against human genes, 0.8 pmol siRNA per well. Duration: 72 h. Read-out: 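Reporter luminescence and viable-cell signal on separate replicate plates, given as percent of non-targeting control and median/MAD z-scores, plus per-cell luciferase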. Reading the numbers: total luciferase, z-score: higher = more reporter protein produced. Call rule: 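Active when the median/MAD z-score for overall luciferase is greater than 3; a gene was taken forward for validation with new siRNAs if at least two of its three siRNAs passed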. Calls: active = raised luciferase; inactive = no rise.
The whole screen tested about 59,000 reagents; this is an unselected part. About 1,510 of them (2.6%) were called active. 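Calls use total luciferase alone and ignore viability, so some active siRNAs may act by altering cell number.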 A number with no mark means an inactive call. The numbers tell different reagents against one gene apart. Not all columns of the deposit are shown. Reagent sequences are not shown.

gene knocked down | reagent | total luciferase, z-score
ZNF266 | 1 | -0.145
ZNF266 | 2 | 0.178
ZNF266 | 3 | -1.26
TM9SF2 | 1 | -1.02
TM9SF2 | 2 | 0.826
TM9SF2 | 3 | 0.0457
SLC15A5 | 1 | 1.91
SLC15A5 | 2 | -1.13
SLC15A5 | 3 | 6.05 (active)
C2orf68 | 1 | 0.532
C2orf68 | 2 | 0.933
C2orf68 | 3 | 1.5
RFX6 | 1 | 0.776
RFX6 | 2 | -0.375
RFX6 | 3 | -1.44
LIN54 | 1 | -1.08
LIN54 | 2 | -1.43
LIN54 | 3 | -1.72
NONO | 1 | -1.75
NONO | 2 | -0.126
NONO | 3 | 1.77
PHF20 | 1 | -2.39
PHF20 | 2 | -0.521
PHF20 | 3 | 0.804
MYO16 | 1 | -0.784
MYO16 | 2 | 0.0567
MYO16 | 3 | 0.567
KRT77 | 1 | -1.03
KRT77 | 2 | -0.517
KRT77 | 3 | -0.667
BHLHA15 | 1 | 0.133
BHLHA15 | 2 | 0.432
BHLHA15 | 3 | 0.321

Single entries from the entries so far.
Value of KRT77 #3 in “total luciferase, z-score”: -0.667
For “total luciferase, z-score”, TM9SF2 #2 reads 0.826
Under “total luciferase, z-score”, RFX6 #3 shows -1.44
ZNF266 #3, total luciferase, z-score → -1.26
Result of BHLHA15 #3 in “total luciferase, z-score”: 0.321
Under “total luciferase, z-score”, ZNF266 #2 is entered as 0.178

Next results:
gene knocked down | reagent | total luciferase, z-score
SLCO4A1 | 1 | -1.85
SLCO4A1 | 2 | 0.433
SLCO4A1 | 3 | -0.153
YBX3 | 1 | -1.46
YBX3 | 2 | -0.663
YBX3 | 3 | -1.29
ZSWIM3 | 1 | 0.0985
ZSWIM3 | 2 | 1.51
ZSWIM3 | 3 | 0.32
RAB8A | 1 | -0.332
RAB8A | 2 | -1.13
RAB8A | 3 | -0.359
SNX17 | 1 | 0.717
SNX17 | 2 | 0.0591
SNX17 | 3 | 0.295
GTF2A1 | 1 | 2.55
GTF2A1 | 2 | 0.398
GTF2A1 | 3 | 2.05
MYOF | 1 | 0.00422
MYOF | 2 | -1.38
MYOF | 3 | 0.317
POLR3G | 1 | 0.802
POLR3G | 2 | 0.874
POLR3G | 3 | -1.84
